These are yes or no findings as the source states them, for the method shown. Some results given as binding are weak or reduced against the parent protein; the word gives no strength.
Molecular target: T1, Nup85 (X. laevis (endogenous in oocytes)) (UniProt Q68FJ0)
T1 sequence: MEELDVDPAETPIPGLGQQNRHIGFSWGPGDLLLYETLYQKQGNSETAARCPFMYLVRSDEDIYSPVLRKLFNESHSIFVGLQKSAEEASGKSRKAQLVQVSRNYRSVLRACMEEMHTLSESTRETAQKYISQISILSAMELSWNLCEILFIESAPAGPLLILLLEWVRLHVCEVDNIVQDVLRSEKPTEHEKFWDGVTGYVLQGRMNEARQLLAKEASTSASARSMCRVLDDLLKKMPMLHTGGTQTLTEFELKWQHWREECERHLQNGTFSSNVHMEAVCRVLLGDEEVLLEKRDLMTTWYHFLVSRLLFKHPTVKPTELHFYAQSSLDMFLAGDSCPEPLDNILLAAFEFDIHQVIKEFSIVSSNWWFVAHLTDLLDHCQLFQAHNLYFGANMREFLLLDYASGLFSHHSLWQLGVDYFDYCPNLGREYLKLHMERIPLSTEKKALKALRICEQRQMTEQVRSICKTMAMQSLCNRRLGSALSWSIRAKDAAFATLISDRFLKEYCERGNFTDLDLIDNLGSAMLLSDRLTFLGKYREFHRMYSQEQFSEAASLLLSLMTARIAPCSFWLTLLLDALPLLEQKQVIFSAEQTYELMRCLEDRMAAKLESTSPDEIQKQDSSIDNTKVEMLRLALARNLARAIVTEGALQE
Test: cryo-EM structure

Sequences of proteins named here, by UniProt entry; tags and fusion partners are left off.
UniProt Q5U249: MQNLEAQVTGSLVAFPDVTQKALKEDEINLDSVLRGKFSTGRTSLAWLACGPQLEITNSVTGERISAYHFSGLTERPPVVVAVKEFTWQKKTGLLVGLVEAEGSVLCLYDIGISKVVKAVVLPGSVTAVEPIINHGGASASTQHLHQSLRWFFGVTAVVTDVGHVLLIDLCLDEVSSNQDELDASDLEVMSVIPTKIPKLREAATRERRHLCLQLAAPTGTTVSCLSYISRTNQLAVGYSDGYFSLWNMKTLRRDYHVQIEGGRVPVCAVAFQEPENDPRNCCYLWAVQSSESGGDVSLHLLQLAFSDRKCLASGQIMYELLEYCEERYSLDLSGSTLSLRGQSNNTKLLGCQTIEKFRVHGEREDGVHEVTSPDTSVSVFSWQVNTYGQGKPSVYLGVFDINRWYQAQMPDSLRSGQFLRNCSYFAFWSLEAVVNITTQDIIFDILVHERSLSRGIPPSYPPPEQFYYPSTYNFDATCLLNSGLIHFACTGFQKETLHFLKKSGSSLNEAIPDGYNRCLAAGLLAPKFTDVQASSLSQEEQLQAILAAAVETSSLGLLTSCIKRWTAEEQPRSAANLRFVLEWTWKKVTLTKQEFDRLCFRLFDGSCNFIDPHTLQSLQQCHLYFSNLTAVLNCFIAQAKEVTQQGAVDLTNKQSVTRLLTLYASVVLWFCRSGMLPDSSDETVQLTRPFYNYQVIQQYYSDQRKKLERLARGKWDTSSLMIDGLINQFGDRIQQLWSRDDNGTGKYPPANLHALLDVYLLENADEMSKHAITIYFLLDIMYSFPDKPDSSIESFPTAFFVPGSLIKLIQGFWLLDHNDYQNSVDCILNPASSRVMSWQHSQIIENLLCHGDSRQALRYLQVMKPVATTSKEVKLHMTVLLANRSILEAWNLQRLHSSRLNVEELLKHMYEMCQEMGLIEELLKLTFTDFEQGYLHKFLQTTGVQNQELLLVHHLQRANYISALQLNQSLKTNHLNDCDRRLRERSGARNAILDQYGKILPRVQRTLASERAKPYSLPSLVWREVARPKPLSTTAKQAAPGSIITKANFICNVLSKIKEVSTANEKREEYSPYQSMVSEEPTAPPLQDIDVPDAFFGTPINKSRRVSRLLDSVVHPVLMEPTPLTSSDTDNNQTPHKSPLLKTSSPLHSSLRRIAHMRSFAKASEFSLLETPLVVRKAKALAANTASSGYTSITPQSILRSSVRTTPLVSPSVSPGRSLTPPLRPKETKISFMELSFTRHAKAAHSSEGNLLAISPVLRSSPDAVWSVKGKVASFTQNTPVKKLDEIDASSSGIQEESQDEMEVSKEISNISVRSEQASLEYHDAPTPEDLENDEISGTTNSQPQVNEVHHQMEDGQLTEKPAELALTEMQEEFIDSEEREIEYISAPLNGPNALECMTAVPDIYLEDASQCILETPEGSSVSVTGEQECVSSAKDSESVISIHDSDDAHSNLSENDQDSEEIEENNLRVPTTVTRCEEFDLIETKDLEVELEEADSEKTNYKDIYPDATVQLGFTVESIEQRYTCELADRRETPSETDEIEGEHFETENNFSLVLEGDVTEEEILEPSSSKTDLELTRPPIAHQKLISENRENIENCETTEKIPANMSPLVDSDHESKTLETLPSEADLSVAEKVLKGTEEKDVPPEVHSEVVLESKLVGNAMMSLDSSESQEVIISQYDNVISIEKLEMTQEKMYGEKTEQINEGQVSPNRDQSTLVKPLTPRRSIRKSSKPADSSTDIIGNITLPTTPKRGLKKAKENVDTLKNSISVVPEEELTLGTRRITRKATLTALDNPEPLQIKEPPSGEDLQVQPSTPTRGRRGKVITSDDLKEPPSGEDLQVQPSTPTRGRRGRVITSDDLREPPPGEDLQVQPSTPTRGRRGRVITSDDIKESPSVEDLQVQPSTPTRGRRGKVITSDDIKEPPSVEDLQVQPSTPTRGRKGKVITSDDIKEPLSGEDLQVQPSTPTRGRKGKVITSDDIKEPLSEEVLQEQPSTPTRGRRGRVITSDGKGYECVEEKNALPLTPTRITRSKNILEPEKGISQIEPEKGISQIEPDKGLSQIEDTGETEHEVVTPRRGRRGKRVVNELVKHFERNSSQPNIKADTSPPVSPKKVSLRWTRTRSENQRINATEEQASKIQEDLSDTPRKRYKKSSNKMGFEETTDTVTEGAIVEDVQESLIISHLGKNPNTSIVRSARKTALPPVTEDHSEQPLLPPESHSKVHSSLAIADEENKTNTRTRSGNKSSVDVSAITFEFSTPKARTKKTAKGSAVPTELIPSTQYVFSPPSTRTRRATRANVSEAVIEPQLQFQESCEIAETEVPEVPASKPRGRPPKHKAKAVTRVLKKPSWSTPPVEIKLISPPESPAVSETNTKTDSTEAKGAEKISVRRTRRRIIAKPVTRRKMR

binding: binds
Substance: ELYS (embryonic large molecule derived from the yolk sac) (from UniProt Q5U249 1-2408)

— paper doi:10.1101/2021.11.10.468008
